No constants are given. Whether binding was seen depends on the method and setting. Some results given as binding are weak or reduced against the parent protein; the word gives no strength.

Amino acid sequences for entries named in this document (tags omitted). A change or cut given only in a name is not applied to a line headed by its entry. Residues count along the entry.
UniProt P36941, residues 31-435: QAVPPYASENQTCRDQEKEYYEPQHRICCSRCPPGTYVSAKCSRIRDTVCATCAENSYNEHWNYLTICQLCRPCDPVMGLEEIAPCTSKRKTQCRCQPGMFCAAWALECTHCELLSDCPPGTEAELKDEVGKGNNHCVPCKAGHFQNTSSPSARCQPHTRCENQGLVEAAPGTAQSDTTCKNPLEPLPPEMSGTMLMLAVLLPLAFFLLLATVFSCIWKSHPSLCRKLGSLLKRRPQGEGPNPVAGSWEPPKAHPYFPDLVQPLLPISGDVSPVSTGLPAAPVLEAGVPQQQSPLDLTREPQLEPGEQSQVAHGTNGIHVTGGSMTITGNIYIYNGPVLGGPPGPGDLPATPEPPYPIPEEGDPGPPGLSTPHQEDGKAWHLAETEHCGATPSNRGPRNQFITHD
UniProt P50284, residues 31-415: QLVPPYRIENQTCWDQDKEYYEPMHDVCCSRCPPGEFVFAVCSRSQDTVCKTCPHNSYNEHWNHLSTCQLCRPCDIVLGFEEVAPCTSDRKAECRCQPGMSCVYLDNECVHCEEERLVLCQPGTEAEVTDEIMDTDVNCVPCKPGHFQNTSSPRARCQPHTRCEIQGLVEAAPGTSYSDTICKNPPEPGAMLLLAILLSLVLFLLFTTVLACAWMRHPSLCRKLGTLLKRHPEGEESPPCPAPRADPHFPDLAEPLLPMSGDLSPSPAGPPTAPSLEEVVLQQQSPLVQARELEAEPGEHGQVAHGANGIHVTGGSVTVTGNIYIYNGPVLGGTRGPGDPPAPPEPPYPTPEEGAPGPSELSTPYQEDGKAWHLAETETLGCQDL
UniProt O43557: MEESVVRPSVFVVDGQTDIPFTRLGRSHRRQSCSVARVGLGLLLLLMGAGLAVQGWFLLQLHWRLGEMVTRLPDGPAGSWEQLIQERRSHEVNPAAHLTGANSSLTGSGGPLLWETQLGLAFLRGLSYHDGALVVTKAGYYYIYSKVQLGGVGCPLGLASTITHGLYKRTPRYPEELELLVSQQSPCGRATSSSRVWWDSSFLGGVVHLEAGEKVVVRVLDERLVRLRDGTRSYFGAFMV

The target in assay [1] is human lymphotoxin beta receptor (LTbR) (human, UniProt P36941 31-435). Briefly: flow cytometry on A375 cells, detected with PE-conjugated anti-human CD258 (LIGHT) antibody. (In general: A flow cytometer gives signals particle by particle.)
The target of assay [2] is mouse lymphotoxin beta receptor (mouse) (UniProt P50284). Briefly: flow cytometry on MC38 cells, detected with PE-conjugated anti-human CD258 (LIGHT) antibody.

In the case of “ProC1486 + uPa (from UniProt O43557 85-240) (ligand)”, the binding entry in assay [1] and in assay [2] was “binds” in each case.

Values taken from patent US20240398920A1 (CYTOMX THERAPEUTICS, published 2024).
